Measured values: paper doi:10.1101/2023.12.21.570062

The chains behind the UniProt entries cited, without tags or fusion partners.
UniProt A1ZAW0: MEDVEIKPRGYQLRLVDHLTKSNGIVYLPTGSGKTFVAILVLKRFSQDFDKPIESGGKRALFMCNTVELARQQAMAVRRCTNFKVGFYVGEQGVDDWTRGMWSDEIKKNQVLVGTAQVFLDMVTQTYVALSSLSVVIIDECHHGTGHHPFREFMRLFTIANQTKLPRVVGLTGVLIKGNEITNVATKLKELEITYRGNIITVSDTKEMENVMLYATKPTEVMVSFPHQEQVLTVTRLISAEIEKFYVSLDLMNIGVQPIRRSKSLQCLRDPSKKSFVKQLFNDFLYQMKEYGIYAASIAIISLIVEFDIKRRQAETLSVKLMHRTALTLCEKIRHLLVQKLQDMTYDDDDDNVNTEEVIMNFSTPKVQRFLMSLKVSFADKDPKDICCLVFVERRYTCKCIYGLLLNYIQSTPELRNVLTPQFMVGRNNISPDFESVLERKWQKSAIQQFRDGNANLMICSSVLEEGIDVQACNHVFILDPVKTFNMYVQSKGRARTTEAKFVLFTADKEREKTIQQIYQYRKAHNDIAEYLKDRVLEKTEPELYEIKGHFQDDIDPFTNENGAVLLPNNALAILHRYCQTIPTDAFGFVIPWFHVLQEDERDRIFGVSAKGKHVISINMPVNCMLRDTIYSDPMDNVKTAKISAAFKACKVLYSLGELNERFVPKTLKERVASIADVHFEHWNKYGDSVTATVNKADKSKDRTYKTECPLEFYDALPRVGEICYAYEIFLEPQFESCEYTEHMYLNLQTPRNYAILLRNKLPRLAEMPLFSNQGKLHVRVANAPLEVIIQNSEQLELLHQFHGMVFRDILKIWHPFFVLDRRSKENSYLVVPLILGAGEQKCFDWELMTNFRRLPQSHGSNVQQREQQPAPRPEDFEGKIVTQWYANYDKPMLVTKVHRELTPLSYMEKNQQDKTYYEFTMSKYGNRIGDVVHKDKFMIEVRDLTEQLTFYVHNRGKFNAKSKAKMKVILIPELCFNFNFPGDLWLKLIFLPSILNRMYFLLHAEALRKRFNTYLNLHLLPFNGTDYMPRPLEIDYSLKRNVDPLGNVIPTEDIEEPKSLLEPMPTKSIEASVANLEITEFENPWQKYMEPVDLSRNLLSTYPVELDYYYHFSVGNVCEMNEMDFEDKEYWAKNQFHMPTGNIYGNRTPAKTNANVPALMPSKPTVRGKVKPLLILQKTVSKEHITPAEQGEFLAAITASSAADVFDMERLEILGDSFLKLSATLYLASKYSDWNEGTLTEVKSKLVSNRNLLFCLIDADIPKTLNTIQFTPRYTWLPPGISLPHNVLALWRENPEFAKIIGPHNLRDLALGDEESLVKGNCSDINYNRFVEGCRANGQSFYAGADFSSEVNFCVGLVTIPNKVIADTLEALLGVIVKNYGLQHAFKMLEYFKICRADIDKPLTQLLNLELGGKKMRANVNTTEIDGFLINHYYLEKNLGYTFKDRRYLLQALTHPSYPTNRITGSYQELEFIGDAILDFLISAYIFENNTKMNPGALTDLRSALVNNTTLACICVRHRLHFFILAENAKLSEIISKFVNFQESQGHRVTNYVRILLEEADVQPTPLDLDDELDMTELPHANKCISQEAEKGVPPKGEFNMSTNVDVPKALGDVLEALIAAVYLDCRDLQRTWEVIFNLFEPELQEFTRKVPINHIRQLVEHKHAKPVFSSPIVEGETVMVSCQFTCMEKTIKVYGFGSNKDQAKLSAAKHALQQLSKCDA
UniProt Q9I7T7: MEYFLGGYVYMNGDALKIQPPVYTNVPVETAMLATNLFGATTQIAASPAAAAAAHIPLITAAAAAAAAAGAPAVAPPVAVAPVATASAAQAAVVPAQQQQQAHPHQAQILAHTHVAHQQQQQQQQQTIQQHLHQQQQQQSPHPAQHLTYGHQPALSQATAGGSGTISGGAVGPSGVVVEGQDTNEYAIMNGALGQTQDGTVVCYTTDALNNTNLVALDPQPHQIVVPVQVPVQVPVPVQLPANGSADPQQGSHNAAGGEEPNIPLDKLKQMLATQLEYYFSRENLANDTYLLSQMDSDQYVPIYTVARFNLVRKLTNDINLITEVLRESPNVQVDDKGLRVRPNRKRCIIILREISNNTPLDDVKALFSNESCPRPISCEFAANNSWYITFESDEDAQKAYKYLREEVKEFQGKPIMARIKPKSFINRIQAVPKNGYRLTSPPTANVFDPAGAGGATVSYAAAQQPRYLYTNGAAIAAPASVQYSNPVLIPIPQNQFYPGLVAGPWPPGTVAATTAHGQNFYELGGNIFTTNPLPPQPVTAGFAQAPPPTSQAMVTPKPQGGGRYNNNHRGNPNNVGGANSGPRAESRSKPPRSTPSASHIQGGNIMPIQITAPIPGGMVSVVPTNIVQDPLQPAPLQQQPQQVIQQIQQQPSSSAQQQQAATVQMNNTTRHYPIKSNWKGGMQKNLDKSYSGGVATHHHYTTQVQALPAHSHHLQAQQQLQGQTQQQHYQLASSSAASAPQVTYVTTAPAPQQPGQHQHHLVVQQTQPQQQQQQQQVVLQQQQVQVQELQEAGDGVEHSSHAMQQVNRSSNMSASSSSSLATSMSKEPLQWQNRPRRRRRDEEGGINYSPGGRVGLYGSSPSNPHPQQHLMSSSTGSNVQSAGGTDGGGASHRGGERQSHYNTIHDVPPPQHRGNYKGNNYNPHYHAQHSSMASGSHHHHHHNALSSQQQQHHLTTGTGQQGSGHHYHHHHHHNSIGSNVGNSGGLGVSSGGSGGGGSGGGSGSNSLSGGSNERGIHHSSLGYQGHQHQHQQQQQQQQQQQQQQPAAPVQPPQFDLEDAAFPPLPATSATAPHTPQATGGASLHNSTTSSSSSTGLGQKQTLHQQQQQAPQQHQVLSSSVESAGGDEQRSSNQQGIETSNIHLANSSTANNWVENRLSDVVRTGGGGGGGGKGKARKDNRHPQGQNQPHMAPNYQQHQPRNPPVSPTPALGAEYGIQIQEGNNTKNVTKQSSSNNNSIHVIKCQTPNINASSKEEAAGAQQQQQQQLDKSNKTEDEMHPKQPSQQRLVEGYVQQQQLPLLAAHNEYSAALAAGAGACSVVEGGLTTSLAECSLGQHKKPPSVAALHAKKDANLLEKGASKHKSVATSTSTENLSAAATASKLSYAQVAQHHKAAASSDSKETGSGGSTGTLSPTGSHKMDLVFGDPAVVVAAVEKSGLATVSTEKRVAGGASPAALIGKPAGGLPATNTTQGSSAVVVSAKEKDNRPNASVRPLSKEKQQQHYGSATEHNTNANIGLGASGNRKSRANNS
UniProt P11147: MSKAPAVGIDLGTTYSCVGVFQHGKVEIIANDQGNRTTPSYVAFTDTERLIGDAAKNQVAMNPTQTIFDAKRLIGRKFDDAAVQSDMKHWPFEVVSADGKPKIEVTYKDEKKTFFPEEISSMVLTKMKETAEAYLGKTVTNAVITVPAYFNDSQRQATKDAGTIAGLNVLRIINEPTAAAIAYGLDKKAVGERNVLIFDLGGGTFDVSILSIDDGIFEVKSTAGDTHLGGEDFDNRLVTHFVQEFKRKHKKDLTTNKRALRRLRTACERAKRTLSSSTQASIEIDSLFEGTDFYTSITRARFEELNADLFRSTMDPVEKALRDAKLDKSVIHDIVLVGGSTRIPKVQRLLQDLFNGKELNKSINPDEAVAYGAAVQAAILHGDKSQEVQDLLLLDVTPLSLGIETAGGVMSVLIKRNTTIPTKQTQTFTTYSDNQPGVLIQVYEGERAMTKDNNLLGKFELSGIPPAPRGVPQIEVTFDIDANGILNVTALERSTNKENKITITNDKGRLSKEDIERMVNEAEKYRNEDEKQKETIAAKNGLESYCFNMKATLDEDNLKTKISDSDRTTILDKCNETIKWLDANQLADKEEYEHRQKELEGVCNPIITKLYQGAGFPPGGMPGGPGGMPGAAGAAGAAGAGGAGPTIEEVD

Experiments:
Assay in all cases: affinity purification with mass spectrometry
[1] = target: GFP::Dicer-2^WT (Drosophila melanogaster) (UniProt A1ZAW0)
[2] = target: GFP::Dicer-2^WT (Drosophila melanogaster) (UniProt A1ZAW0); remark: listed apart in the source
[3] = target: GFP::Dicer-2^WT (Drosophila melanogaster) (UniProt A1ZAW0); remark: listed apart in the source

Larp4B (from UniProt Q9I7T7 1-1531)
binding [1]: binds

Hsc70-4 (from UniProt P11147 1-651)
binding [1]: binds

B1: R2D2 (protein, UniProt Q9VLW8 1-311)
chain: MDNKSAVSALQEFCARTQINLPTYSFIPGEDGGYVCKVELLEIEALGNGRSKRDAKHLAASNILRKIQLLPGIHGLMKDSTVGDLDEELTNLNRDMVKELRDYCVRREMPLPCIEVVQQSGTPSAPEFVACCSVASIVRYGKSDKKKDARQRAAIEMLALISSNSDNLRPDQMQVASTSKLKVVDMEESMEELEALRRKKFTTYWELKEAGSVDHTGMRLCDRHNYFKNFYPTLKKEAIEAINSDEYESSKDKAMDVMSSLKITPKISEVESSSLVPLLSVELNCAFDVVLMAKETDIYDHIIDYFRTMLI
binding [2]: binds | binding [3]: binds

B2: Arc1 (protein, UniProt Q7K1U0 1-254)
chain: MAQLTQMTNEQLRELIEAVRAAAVGAAGSAAAAGGADASRGKGNFSACTHSFGGTRDHDVVEEFIGNIETYKDVEGISDENALKGISLLFYGMASTWWQGVRKEATTWKEAIALIREHFSPTKPAYQIYMEFFQNKQDDHDPIDTFVIQKRALLAQLPSGRHDEETELDLLFGLLNIKYRKHISRHSVHTFKDLLEQGRIIEHNNQEDEEQLATAKNTRGSKRTTRCTYCSFRGHTFDNCRKRQKDRQEEQHEE
binding [3]: binds

Where two headings read alike, the source gives them in different places. Results are given in words; binding and its absence hold for the method and conditions named. Binding seen in cells or lysates may run through a third protein. These calls come from enrichment with a bait or labelling near it, and not all partners need be listed.
